Source: PubChem BioAssay AID1053208 (Peter MacCallum Cancer Centre, 2014)
The deposit covers about 17,000 reagents; this is an unselected part. 788 of all reagents (4.7%) were called active. 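Calls rest on z-score classes alone; an extra cut-off of viability at most 70% of control was not applied to them.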 A number with no mark means an inactive call. Further read-outs or replicates are left out here.

- Screen: 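Synthetic lethal interactions between gene loss and doxorubicin in osteosarcoma cells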 (primary screen)
- Cells: mouse osteosarcoma cells, early-passage culture from an engineered mouse model of fibroblastic bone tumour
- Knock-down reagent: siRNA pool against mouse genes, 40 nM
- Timing: about 120 h (48 h before drug, then 72 h with drug)
- Treatment: doxorubicin 100 nM for 72 h, roughly 30-40% inhibitory dose
- Detection: 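Viability read as ATP luminescence after 72 h of 100 nM doxorubicin or none, duplicate wells averaged, scaled to non-targeting siRNA, then expressed as robust z-scores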
- Reading the numbers: viability z-score with doxorubicin: higher = more viable cells under doxorubicin; viability z-score without drug: higher = more viable cells with knock-down alone
- Hit rule: 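Called active if knock-down leaves viability unchanged without drug (z within -2 to 2) but lowers it with doxorubicin (z at or under -2)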

gene knocked down | combined z-score class | viability z-score with doxorubicin | viability z-score without drug
Cdc6 (cell division cycle 6) | no change with or without drug | 1.12 | -0.17
Pif1 (PIF1 5'-to-3' DNA helicase) | no change with or without drug | 0 | 0.67
Tnfrsf13c (tumor necrosis factor receptor superfamily, member 13c) | no change with or without drug | 0 | -0.51
Cdk16 (cyclin dependent kinase 16) | no change with or without drug | -0.22 | -0.51
Elane (elastase, neutrophil expressed) | no change with or without drug | 0 | 0.34
Cyp2g1 (cytochrome P450, family 2, subfamily g, polypeptide 1) | no change with or without drug | -0.67 | 0.51
Zfp729a (zinc finger protein 729a) | no change with or without drug | 0.34 | 1.18
Adgrl2 (adhesion G protein-coupled receptor L2) | no change with or without drug | 0.56 | -0.17
Mybl1 (Myb proto-oncogene like 1) | no change with or without drug | 1.01 | 1.18
5730405M06RIK | low cell count with doxorubicin only (active) | -2.25 | 0.84

Part of the list above, reformatted:
Elane (elastase, neutrophil expressed) → combined z-score class: no change with or without drug; viability z-score with doxorubicin: 0; viability z-score without drug: 0.34
Cyp2g1 (cytochrome P450, family 2, subfamily g, polypeptide 1) → combined z-score class: no change with or without drug; viability z-score with doxorubicin: -0.67; viability z-score without drug: 0.51

More entries follow:
gene knocked down | combined z-score class | viability z-score with doxorubicin | viability z-score without drug
Snai3 (snail family zinc finger 3) | no change with or without drug | 1.8 | 1.01
Chchd1 (coiled-coil-helix-coiled-coil-helix domain containing 1) | no change with or without drug | -0.45 | 0.51
Nr5a2 (nuclear receptor subfamily 5, group A, member 2) | no change with or without drug | 0.9 | -0.17
Mlec (malectin) | no change with or without drug | 0.79 | 0.84
Fgfr4 (fibroblast growth factor receptor 4) | no change with or without drug | -0.79 | 0.67
Sdha | no change with or without drug | 0 | -0.34
Cln5 (ceroid-lipofuscinosis, neuronal 5) | no change with or without drug | -0.34 | -1.01
Serinc1 (serine incorporator 1) | no change with or without drug | 1.24 | -0.84
Commd1 (COMM domain containing 1) | no change with or without drug | -1.12 | -0.51
Kpnb1 (karyopherin subunit beta 1) | low cell count with and without drug | -4.61 | -4.55
